Measurements reported in patent publication US7807384B2, “Low density lipoprotein binding proteins and their use in diagnosing and treating atherosclerosis” (Boston Heart Foundation, Inc., priority 1996, dated 2010).

Assay: Body weight and serum lipids of LBP-immunized apo E knockout mice
Assay type: in vivo, mouse
Conditions: small sample size, large variability
Protocol: Four week old apo E knockout mice (Jackson Laboratories, Bar Harbor, Me.) were ear tagged, randomly assigned to different cages and weighed. Body weights were determined weekly. Animals were allowed to habituate for 1 week. Normal rodent chow was provided ad libitum and animals were maintained in a 12:12 light:dark cycle. The following four groups of mice were treated with either recombinant LBP proteins (40 μg of recombinant protein/mouse) plus RIBI adjuvant or RIBI adjuvant alone (control group).
Blood samples were analyzed for total cholesterol, HDL cholesterol, and triglyceride concentration with a commercially available total cholesterol and triglycerides assay kits (Sigma; St. Louis Mo.) using an ELISA format. HDL concentration was determined after Apo B containing lipoproteins were precipitated using heparin/MnCl2.
Data were analyzed using T-tests and Wilcoxons.

Row | Molecule | Effect of immunization on total cholesterol, HDL cholesterol or triglycerides concentration
1 | LBP-2: rabbit recombinant LBP-2 clone 26 (6-His tag), contains the acidic region (protein, left off: small tags and cut ends, rabbit recombinant LBP-2 clone 26 (6-His tag), contains the acidic region) PPPPQQPQPPPEGGAARAGGPARPVSLREVVRYLGGSSGAGGRLTRGRVQGLLEEEAAARGRLERTRLGALALPRGDRPGRAPPAASARAARNKRAGEERVLEKEEEEEEEEDDEDDDDDVVSEGSEVPESDRPAGAQHHQLNGGERGPQTAKERAKEWSLCGPHPGQEEGRGPAAGSGTRQVFSMAALSKEGGSASSTTGPDSPSPVPLPPGKPALPGADGTPFGCPAGRKEKPADPVEWTVMDVVEYFTEAGFPEQATAFQEQEIDGKSLLLMQRTDVLTGLSIRLGPALKIYEHHIKVLQQGHFEDDDPEGFLG | did not appear to
2 | LBP-3: rabbit recombinant LDL binding protein LBP-3 (6-His tag), SEQ ID NO: 5 (protein, listed as Oryctolagus cuniculus, 6-His tag) MKNQDKKNGAAKQPNPKSSPGQPEAGAEGAQGRPGRPAPAREAEGASSQAPGRPEGAQAKTAQPGALCDVSEELSRQLEDILSTYCVDNNQGAPGEDGVQGEPPEPEDAEKSRAYVARNGEPEPGTPVVNGEKETSKAEPGTEEIRTSDEVGDRDHRRPQEKKKAKGLGKEITLLMQTLNTLSTPEEKLAALCKKYAELLEEHRNSQKQMKLLQKKQSQLVQEKDHLRGEHSKAILARSKLESLCRELQRHNRSLKEEGVQRAREEEEKRKEVTSHFQMTLNDIQLQMEQHNERNSKLRQENMELAERLKKLIEQYELREEHIDKVFKHKDLQQQLVDAKLQQAQEMLKEAEERHQREKDFLLKEAVESQRMCELMKQQETHLKQQLALYTEKFEEFQNTLSKSSEVFTTFKQEMEKMTKKIKKLEKETTMYRSRWESSNKALLEMAEEKTLRDKELEGLQVKIQRLEKLCRALQTERNDLNKRVQDLSAGGQGPVSDSGPERRPEPATTSKEQGVEGPGAQVPNSPRATDASCCAGAPSTEASGQTGPQEPTTATA | did not appear to
